# Results: the supplement of paper PMC11542785
# Structures can show the parent of a compound that is named as a salt. The list shows a part of the results. Most values come without repeats; read them as rough.
# Test system: Drosophila melanogaster DPAGT1 (Alg7) RNAi eye model
# Test: eye size Z-score vs DMSO-treated DPAGT1 model flies; higher = larger eye (suppression of DPAGT1 phenotype)
# Conditions: 5 uM
Structure (SMILES),eye size Z-score,eye size Z-score (female)
CC(=O)S[C@@H]1CC2=CC(=O)CC[C@]2(C)[C@H]2CC[C@@]3(C)[C@@H](CC[C@@]34CCC(=O)O4)[C@H]12 [Spironolactone],-0.03,
CCCc1cc(C(N)=S)ccn1 [Prothionamide],1.4,
CC(Cc1cccc(C(F)(F)F)c1)NCCOC(=O)c1ccccc1 (stereo unspecified) [Benfluorex],1.11,
C=C1CC[C@H](O)C/C1=C/C=C1\CCC[C@]2(C)[C@@H]([C@H](C)CCCC(C)C)CC[C@@H]12 [Cholecalciferol],0.92,
NNCCc1ccccc1 [Phenelzine sulfate],-1.18,
C[C@H]1O[C@H](O[C@H]2[C@H](O)[C@@H](O)[C@@H](O[C@H]3[C@H](O)[C@@H](O)C(O)O[C@@H]3CO)O[C@@H]2CO)[C@H](O)[C@@H](O)[C@@H]1N[C@H]1C=C(CO)[C@@H](O)[C@H](O)[C@H]1O (stereo partly specified) [Acarbose],-0.24,
CC(C)(CO)[C@@H](O)C(=O)NCCC(=O)NCCSSCCNC(=O)CCNC(=O)[C@H](O)C(C)(C)CO [D-Pantethine],0.4,
CN1CCC(=C2c3ccccc3C=Cc3ccccc32)CC1 [Cyproheptadine hydrochloride],-0.09,
CC(C)(C)NC[C@@H](O)COc1cccc2c1CCCC2=O [(+) Levobunolol hydrochloride],0.64,
CO[C@H]1/C=C/O[C@@]2(C)Oc3c(C)c(O)c4c(O)c(c(/C=N/N5CCN(C6CCCC6)CC5)c(O)c4c3C2=O)NC(=O)/C(C)=C\C=C\[C@H](C)[C@H](O)[C@@H](C)[C@@H](O)[C@@H](C)[C@H](OC(C)=O)[C@@H]1C [Rifapentine],0.75,
N=C(N)NC(=N)NCCc1ccccc1 [Phenformin hydrochloride],0.89,
NCCc1c[nH]cn1 [Histamine dihydrochloride],-0.08,
OC(Cn1cncn1)(Cn1cncn1)c1ccc(F)cc1F [Fluconazole],-0.62,
CCCOc1cc(N)ccc1C(=O)OCCN(CC)CC [Propoxycaine hydrochloride],1.06,
C[C@@H](NCCCc1cccc(C(F)(F)F)c1)c1cccc2ccccc12 [Cinacalcet hydrochloride],,0.63
CC[N+](C)(C)c1cccc(O)c1 [Edrophonium chloride],0.97,
OCCN1CCN(CC/C=C2/c3ccccc3Sc3ccc(C(F)(F)F)cc32)CC1 [Flupentixol dihydrochloride cis-(Z)],0.01,
Cc1cn[nH]c1 [Fomepizole],-0.66,
CC(=O)OCC(=O)[C@@]1(O)CC[C@H]2[C@@H]3CCC4=CC(=O)C=C[C@]4(C)[C@@]3(Cl)[C@@H](Cl)C[C@@]21C [Dichlorisone acetate],-0.02,
CCCCN(CCCC)CCCOC(=O)c1ccc(N)cc1 [Butacaine],-0.81,
Cc1ccc(C(=O)c2ccc(CC(=O)O)n2C)cc1 [Tolmetin sodium salt dihydrate],0.21,
COC(=O)Nc1nc2cc(C(=O)c3cccs3)ccc2[nH]1 [Nocodazole],-0.74,
CC[N+](C)(CC)CCOC(=O)C1c2ccccc2Oc2ccccc21 [Methantheline bromide],0.05,

Structure (SMILES),eye size Z-score,eye size Z-score (female)
CC(=O)OCC(=O)[C@@]1(O)CC[C@H]2[C@@H]3CCC4=CC(=O)CC[C@]4(C)[C@@]3(F)[C@@H](O)C[C@@]21C [Fludrocortisone acetate],-0.84,
NS(=O)(=O)c1cc(C2(O)NC(=O)c3ccccc32)ccc1Cl (stereo unspecified) [Chlorthalidone],0.14,
C=CC(N)CCC(=O)O (stereo unspecified) [Vigabatrin hydrochloride],0.45,
CC(=O)OCC(=O)[C@@]1(O)CC[C@H]2[C@@H]3CCC4=CC(=O)CC[C@]4(C)[C@H]3[C@@H](O)C[C@@]21C [Cortisol acetate],0.67,
Cc1ncc(C[n+]2csc(CCO)c2C)c(N)n1 [Thiamine hydrochloride],-0.28,
CC(C)c1c(C(=O)Nc2ccccc2)c(-c2ccccc2)c(-c2ccc(F)cc2)n1CC[C@@H](O)C[C@@H](O)CC(=O)O [Atorvastatin],-1.91,
CCN[C@H]1CN(CCCOC)S(=O)(=O)c2sc(S(N)(=O)=O)cc21 [Brinzolamide],-0.89,
CC(=O)Oc1ccccc1C(=O)Nc1ncc([N+](=O)[O-])s1 [Nitazoxanide],-0.52,
CCN(CC)CCOC(=O)C1(C2CCCCC2)CCCCC1 [Dicyclomine hydrochloride],1.22,
CCCCOCCOCCOCc1cc2c(cc1CCC)OCO2 [Piperonyl butoxide],0.26,
CC(N/C(=N\C#N)Nc1ccncc1)C(C)(C)C (stereo unspecified) [Pinacidil monohydrate],-0.09,
CCCCC(O)c1ccccc1 (stereo unspecified) [Fenipentol],-1.17,
CN(C)CCCN1c2ccccc2Sc2ccc(C(F)(F)F)cc21 [Triflupromazine hydrochloride],,-0.35
COc1cc(C(=O)OCCCN2CCCN(CCCOC(=O)c3cc(OC)c(OC)c(OC)c3)CC2)cc(OC)c1OC [Dilazep dihydrochloride],-0.25,
O=C1c2c(O)cccc2Cc2cccc(O)c21 [Anthralin],1.31,
C[C@@H]1C[C@H]2[C@@H]3C[C@H](F)C4=CC(=O)C=C[C@]4(C)[C@@]3(F)[C@@H](O)C[C@]2(C)[C@@]1(O)C(=O)CO [Flumethasone],0.39,
O=C(O)Cc1ccc(-c2ccccc2)cc1 [Felbinac],0.22,
O=C(O)c1cn(-c2ccc(F)cc2)c2cc(N3CCNCC3)c(F)cc2c1=O [Sarafloxacin],-0.35,
C[N+]1(C)CCC(OC(=O)C(O)(c2ccccc2)C2CCCC2)C1 (stereo unspecified) [Glycopyrrolate bromide],0.27,
Clc1ccc(CCC(Cn2ccnc2)Sc2c(Cl)cccc2Cl)cc1 (stereo unspecified) [Butoconazole nitrate],-0.93,
N#Cc1ccc(C(c2ccc(C#N)cc2)n2cncn2)cc1 [Letrozole],-0.41,
N=C(NCCCCCCNC(=N)NC(=N)Nc1ccc(Cl)cc1)NC(=N)Nc1ccc(Cl)cc1 [Chlorhexidine],-1.53,
NCc1ccccc1CC(=O)N[C@@H]1C(=O)N2C(C(=O)O)=C(CSc3nnnn3CC(=O)O)CS[C@H]12 [Ceforanide],0.1,

# Single values from the entries so far:
# eye size Z-score with `N#Cc1ccc(C(c2ccc(C#N)cc2)n2cncn2)cc1` [Letrozole] is entered as -0.41
# eye size Z-score with `C[N+]1(C)CCC(OC(=O)C(O)(c2ccccc2)C2CCCC2)C1` (stereo unspecified) [Glycopyrrolate bromide] is entered as 0.27
# eye size Z-score with `O=C1c2c(O)cccc2Cc2cccc(O)c21` [Anthralin] is entered as 1.31
